PubChem BioAssay AID1259283 | Sanger Institute | 2017
Aim: 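Kinases whose silencing adds to targeted drugs in killing colon cancer cells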 (primary screen). Cell system: HT115 colorectal cancer cells. Reagent: siRNA pool against human genes. Conditions: anchor drug given one day after siRNA: BYL719 at 1 µM, cetuximab at 5 µg/ml, trametinib at 10 nM, or DMSO vehicle alone. Read-out: 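Viability normalised to non-targeting pool #2 wells and averaged over replicates, robust z-score against control wells, and a synergy score for each of three drugs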. Scale: robust z-score, knock-down alone: higher = more viable cells after knock-down. Call rule: 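a gene counts as essential when its robust z-score with knock-down alone is below -3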. Meaning of the calls: active = essential (z below -3, no drug); inactive = no change without drug.
Here is one part, drawn at random, of 794 reagents. Over the whole deposit, 14 (1.8%) were called active. 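Calls reflect only viability loss without drug; drug synergy does not enter the call.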 Further read-outs or replicates are left out here. Reagent sequences are not shown. Not given: the amount of reagent, the time to read-out.

target | robust z-score, knock-down alone | Call
PRKG1 (protein kinase cGMP-dependent 1) | 0.74 | inactive
CREBBP (CREB binding lysine acetyltransferase) | -0.759 | inactive
GSK3A (glycogen synthase kinase 3 alpha) | 0.515 | inactive
TYRO3 (TYRO3 protein tyrosine kinase) | 0.789 | inactive
MAPK9 (mitogen-activated protein kinase 9) | 0.595 | inactive
JAK3 (Janus kinase 3) | 0.789 | inactive
AK7 (adenylate kinase 7) | -0.571 | inactive
TNNI3K (TNNI3 interacting kinase) | 0.789 | inactive
MAP3K20 (mitogen-activated protein kinase kinase kinase 20) | 0.789 | inactive
PFKFB1 (6-phosphofructo-2-kinase/fructose-2,6-biphosphatase 1) | -0.49 | inactive
MVK (mevalonate kinase) | 0.789 | inactive
CDK1 (cyclin dependent kinase 1) | 0.227 | inactive
TRIB1 (tribbles pseudokinase 1) | 0.789 | inactive
KCNH8 (potassium voltage-gated channel subfamily H member 8) | -0.504 | inactive
JAK2 (Janus kinase 2) | -1.39 | inactive
FCSK (fucose kinase) | -0.704 | inactive
STK4 (serine/threonine kinase 4) | 0.789 | inactive
SMC1A (structural maintenance of chromosomes 1A) | -1.4 | inactive
ITPKA (inositol-trisphosphate 3-kinase A) | -0.762 | inactive
DGKQ (diacylglycerol kinase theta) | -1.88 | inactive

No new results follow: 2 of the entries above.
target | robust z-score, knock-down alone | Call
SMC1A (structural maintenance of chromosomes 1A) | -1.4 | inactive
ITPKA (inositol-trisphosphate 3-kinase A) | -0.762 | inactive
